Test results: the supplement of paper PMC11060735
Several values for one entry are separate records, joined by “and”; a condition that tells them apart may be missing. Identical values can stand only once. Counter-ions that a name gives are not always drawn. ± gives the standard deviation of the averaged measurements. Whole data set: some 1,800 compounds, median “GFP- (p16Ink4a-) cell count relative to negative-control wells” near 0.99, cut for the lowest 2% near 0.5. Some of the results follow. Square brackets hold non-standard residues; d marks the D form. Peptide text beside a SMILES is read from it. pGlu = O=C1CC[C@@H](C(=O)O)N1; Thz = O=C(O)[C@@H]1CSCN1

Test system: mouse p16Ink4a+/- lung fibroblasts (INKBRITE, bleomycin-injured)
Assay: GFP- (p16Ink4a-) cell count relative to negative-control wells (fold of vehicle); higher = more p16Ink4a- cells surviving
Conditions: 1 µM; 3 days

Compound	GFP-
CCc1ccc(CCOc2ccc(CC3SC(=O)NC3=O)cc2)nc1 (stereo not given) [Pioglitazone]	1.05 and 1.1
Cc1ccc(NC(=O)c2ccc(CN3CCN(C)CC3)cc2)cc1Nc1nccc(-c2cccnc2)n1 [Imatinib, Imatinib Mesylate]	1.04 and 0.966
Nc1ccn([C@H]2CC[C@@H](CO)O2)c(=O)n1 [Zalcitabine]	0.961
CC(C)CN(C[C@@H](O)[C@H](Cc1ccccc1)NC(=O)O[C@H]1CO[C@H]2OCC[C@H]21)S(=O)(=O)c1ccc(N)cc1 [Darunavir]	0.901
CNC(=O)c1cc(Oc2ccc(NC(=O)Nc3ccc(Cl)c(C(F)(F)F)c3)c(F)c2)ccn1 [Regorafenib]	0.977
O=C(O)Cc1ccccc1Nc1c(Cl)cccc1Cl [Diclofenac]	1.1 and 0.997 and 1.08
N#Cc1ccc(C(c2ccc(C#N)cc2)n2cncn2)cc1 [Letrozole]	0.829
O=C(O)c1ccc(/C=C2/SC(=S)N(c3cccc(C(F)(F)F)c3)C2=O)cc1	1.08
C[C@@H](O)[C@H]1C(=O)N2C(C(=O)OCOC(=O)C(C)(C)C)=C(SC3CN(C4=NCCS4)C3)[C@H](C)[C@H]12 [Tebipenem Pivoxil]	0.967
CN(C)CC(=O)Nc1ccc2nc(O)c3ccccc3c2c1	1.06 ± 0.057
c1ccc(CN(CC2=NCCN2)c2ccccc2)cc1 [Antazoline]	0.943
Oc1c(Br)cc(Br)c2cccnc12 [Broxyquinoline]	0.897
Nc1ccc2ncnc(NCCc3ccc(Oc4ccccc4)cc3)c2c1	0.942
CC(C)(O)[C@H]1CC[C@@](C)([C@H]2[C@@H](O)C[C@@]3(C)[C@@H]4C[C@H](O[C@@H]5O[C@H](CO)[C@@H](O)[C@H](O)[C@H]5O)[C@H]5C(C)(C)[C@@H](O[C@@H]6OC[C@@H](O)[C@H](O)[C@H]6O)CC[C@@]56C[C@@]46CC[C@]23C)O1 [Astragaloside A]	0.817
CNC(=O)c1nn(C)c2c1C(C)(C)Cc1cnc(Nc3ccc(N4CCN(C)CC4)cc3)nc1-2 [Milciclib]	0.728
S=C(NCc1ccc2c(c1)OCO2)N1CCN(c2ncnc3c2oc2ccccc23)CC1 [Amuvatinib]	1.03
O=C(CCCCCN1C(=O)c2cccc3cccc(c23)C1=O)NO [Scriptaid]	0.563 ± 0.04
COc1ccc2c(c1)c(C1=C(c3c[nH]c4ccccc34)C(=O)NC1=O)cn2CCCN(C)C	0.797
Cn1cc(CNCC2CCN(c3ncc(C(=O)NO)cn3)CC2)c2ccccc21 [Quisinostat]	0.522 ± 0.027
Nc1nccc2c1ncn2[C@@H]1C=C(CO)[C@@H](O)[C@H]1O [3-Deazaneplanocin A (DZNeP)]	0.833 ± 0.05

Compound	GFP-
O=[N+]([O-])c1cn2c(n1)OC[C@@H](OCc1ccc(OC(F)(F)F)cc1)C2	0.911
CC(C(=O)O)c1cccc(Oc2ccccc2)c1 (stereo not given) [Fenoprofen]	0.886
Cc1cccc(-c2[nH]c(C(C)(C)C)nc2-c2ccc3nccnc3c2)n1	1.27
Oc1ccc(Nc2nc(-c3ccc(Cl)cc3)cs2)cc1	0.947
COc1cc2c(cc1OC)[C@@H]1Cc3ccc(OC)c(OC)c3CN1CC2 [Rotundine]	1.01
N=C(N)NC(=O)c1nc(Cl)c(N)nc1N [Amiloride]	0.97
CCCc1ncc(C[n+]2ccccc2C)c(N)n1 [Amprolium]	1.02
CCOc1ccc(Cc2cc([C@@H]3O[C@H](CO)[C@@H](O)[C@H](O)[C@H]3O)ccc2Cl)cc1 [Dapagliflozin]	1.12
O=C1CC[C@@H](C(=O)N2CSC[C@H]2C(=O)O)N1 [Pidotimod] ([pGlu]-[Thz]-OH)	1.17
CC(=O)OCC(=O)NCCCOc1cccc(CN2CCCCC2)c1 [Roxatidine acetate]	0.987
OC[C@@H](O)[C@@H](O)[C@H](O)[C@H](O)CO [Mannitol]	1.13
Nc1nc(N)c2nc(-c3cccc(O)c3)cnc2n1	0.953
CN1CCN(C(c2ccccc2)c2ccccc2)CC1 [Cyclizine]	0.973
CCCCOc1c(C(=O)c2c(F)cc(C)cc2F)cnc2[nH]ncc12	0.973
FC(F)c1nc2ccccc2n1-c1nc(N2CCOCC2)nc(N2CCOCC2)n1	0.711
C[C@]1(O)C[C@@H](c2nc(-c3ccc4ccc(-c5ccccc5)nc4c3)c3c(N)nccn32)C1 [Linsitinib]	0.931
OC1(c2ccc(Cl)c(C(F)(F)F)c2)CCN(CCCC(c2ccc(F)cc2)c2ccc(F)cc2)CC1 [Penfluridol]	0.901
COc1cc2c(cc1OC)CC(=O)N(CCCN(C)C[C@H]1Cc3cc(OC)c(OC)cc31)CC2 [Ivabradine]	1.14
O=C(NOCC1CC1)c1ccc(F)c(F)c1Nc1ccc(I)cc1Cl	0.839
CC[C@]1(O)C[C@@H]2CN(CCc3c([nH]c4ccccc34)[C@@](C(=O)OC)(c3cc4c(cc3OC)N(C=O)[C@@H]3C45CCN4CC=C[C@](CC)([C@H]45)[C@@H](OC(C)=O)[C@]3(O)C(=O)OC)C2)C1 (stereo not given in full) [Vincristine]	0.699
